Assay results taken from US20160090605A1 (ACADEMIA SINICA, published 2016).
Results are given in words; binding and its absence hold for the method and conditions named. In cells and extracts the contact can be indirect. These calls come from enrichment with a bait or labelling near it, and not all partners need be listed. Tags and fused reporters may be left off the sequences shown. Each block holds one binder with its values, some of them ahead of it.

Assays:
YFP-AFL1 (Arabidopsis) [1] = target: T1, YFP-AFL1 (Arabidopsis) (UniProt Q9LHD9); experiment: IP/MS of YFP-AFL1 (GFP-trap, mass spectrometry)
T1 sequence: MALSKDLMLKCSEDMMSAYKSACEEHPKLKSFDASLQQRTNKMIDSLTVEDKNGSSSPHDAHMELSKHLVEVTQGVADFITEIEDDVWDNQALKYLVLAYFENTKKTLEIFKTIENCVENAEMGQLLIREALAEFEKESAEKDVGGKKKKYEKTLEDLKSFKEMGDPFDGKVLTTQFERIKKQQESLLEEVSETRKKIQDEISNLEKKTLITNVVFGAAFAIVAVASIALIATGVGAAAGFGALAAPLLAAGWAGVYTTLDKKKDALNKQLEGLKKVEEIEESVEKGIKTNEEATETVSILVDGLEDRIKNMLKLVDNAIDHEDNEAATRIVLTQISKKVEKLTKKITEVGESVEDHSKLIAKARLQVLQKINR

YFP-AFL1 (Arabidopsis) [2] = target: T1, YFP-AFL1 (Arabidopsis); experiment: immunoprecipitation of YFP-AFL1, mass spectrometry

binding (YFP-AFL1 (Arabidopsis) [1]): binds
B1: At14a-like1 (AFL1), full length (other)
chain: T1 sequence
notes: Full-length AFL1; In mbSUS it was a split-ubiquitin fusion expressed in yeast; In BiFC it was a fusion to a YFP half (YFPN or YFPC, the latter MYC-tagged); This entry also stands for native AFL1 in seedling extracts (47 kDa band; co-purified with YFP-AFL1); also called AT3G28270; Full Length AFL1

binding (YFP-AFL1 (Arabidopsis) [2]): binds
binding (YFP-AFL1 (Arabidopsis) [1]): binds
B2: Protein Disulfide Isomerase5 (PDI5) (enzyme)
chain: EETETKEFVLTLDHTNFTDTINKHDFIVVEFYAPWCGHCKQLAPEYEKAASALSSNVPPVVLAKIDASEETNREFATQYEVQGFPTIKIFRNGGKAVQEYNGPREAEGIVTYLKKQSGPASAEIKSADDASEVVSDKKVVVVGIFPKLSGSEFDSFMAIAEKLRSELDFAHTSDAKLLPRGESSVTGPVVRLFKPFDEQFVDSKDFDGEALEKFVKESSIPLITVFDKDPNNHPYVIKFFESTNTKAMLFINFTGEGAESLKSKYREVATSNKGQGLSFLLGDAENSQGAFQYFGLEESQVPLIIIQTADDKKYLKTNVEVDQIESWVKDFKDGKIAPHKKSQPIPAENNEPVKVVVSDSLDDIVLNSGKNVLLEFYAPWCGHCQKLAPILDEVAVSYQSDSSVVIAKLDATANDFPKDTFDVKGFPTIYFKSASGNVVVYEGDRQRESLYLFIRFLYVHSSEQ

binding (YFP-AFL1 (Arabidopsis) [2]): binds
binding (YFP-AFL1 (Arabidopsis) [1]): binds
B3: ER-body protein NAI2 (protein)
chain: QDEGTGSLSTLDLIEHEYQTSVNSLQGNEAVDQTETSGQKNSTVSDNNTISLSLSEEPALETLKESVDTSAELGAVTDEVDKPSSMLDHIELEFEAHINELKEAGSDGINKVEESKDDEEAARRHKMLEAIEREFEAAHAGFEQLKTDDSAQGLDDEQSAKRQSMLDEIERDFEAATKGLEQLKADDLTGINDEEHAAKRQKMLEEIEREFEEATKGLEELRHSTSSTDDEAQSAKRQNMLDEIEREFEAATSGLKELKINAHTVKDDVDDKEQDAKRQSMLDAIEREFEAVTESFKQLEDIADNKAEGDDESAKRQSMLDEIEREFEAATNSLKQLNLDDFSEGDDSAESARRNSMLEAIEREFEAATKGLEELKANDSTGDKDDDEHVARRKIMLEAIEREFEAATKGLEELKNESEQAENKRNSMLEAFEREFEAATNAKANGENSAKNPSTISTTVQKSSGGYNAGLEGLLKPADGVCGCFNKDKDGLQADTDSSINIAEILAEESKLQGSGTSRLTTSLNNLVDTHRKETSSKVGSVLGSSSSVTSTTSESAATSESIESLKQTLRKLRGLSARDLVNHPNFDAIIAAGTRYEVLSSASIGYISLLAKYKTVIKEGLEASQRVQIAQTRAKLLKETAMEKQRTVDSVFAAAKTTAQRGDALHIRIVAIKKLLAKLEAEKVDVDSKFTSLTTSLSELLKEASQAYEEYHEAVHKAKDEQAAEEFAVETTKRAEHIWVEFLSSLN
